{
  "source": "patent US20210154208A1",
  "about": "“Method to Identify Agents That Can Overcome Inhibition Caused By Drug-protein Binding of the Human Plasma Protein, Alpha-1-acid Glycoprotein” (The Johns Hopkins University, priority 2019, published 2021)",
  "key": {"MOLM-14 cells [1]": {"system": "MOLM-14 cells", "test": "Modified PIA, MTT proliferation with purified human AGP", "type": "cell-based", "protocol": "In the original plasma inhibitory assay (PIA), FLT3/ITD-expressing cells are co-incubated with plasma samples from patients receiving a FLT3 TKI, and Western blotting analysis of FLT3 auto-phosphorylation is used to measure the extent of FLT3 inhibitory activity present in their plasma.(9) This can then be compared to total plasma drug levels to determine the relative efficacy of a drug in vivo compared to its activity in vitro. […] To model these effects in the pre-clinical setting, we modified the PIA assay. Whereas the PIA was designed to assess in vivo drug activity with regards to a specific target (e.g.: inhibition of FLT3 auto-phosphorylation by TKI), the modified PIA is similarly cell-based, but measures the clinically relevant biological end-points of cytotoxicity and proliferation inhibition, instead of target inhibition. In the modified assay, FLT3/ITD cell lines are cultured in the presence of human plasma or purified human plasma proteins and treated with a range of concentrations of the drug of interest. […] Furthermore, like the original PIA, Western blot analysis can be performed on cells treated in this manner to study specific pathways of interest (FIG. 1B). […] The modified PIA utilizes the general endpoint of cytotoxicity.\nWhere Δ is the fold-change in IC50, KA is the drug-protein association constant, P0 is the total protein concentration and PA is the drug-bound protein concentration. From this relationship, in the absence of other drug-protein interactions, fold-change is linearly related to drug-free protein concentration. […] When the analysis also takes into account drug-bound protein, these curves can be used to directly measure KA. To that end, we performed the modified PIA using purified AGP against the staurosporine-derived FLT3 TKI, using MOLM-14 cells (FIG. 4A). For comparison, we also assayed the anti-proliferative effects of non-specific protein kinase C inhibition by staurosporine itself in HL-60 cells (FLT3 wild-type AML).\nCells in logarithmic growth are resuspended in either human plasma or serum-free RPMI 1640 media supplemented with the plasma protein of interest and seeded in 96-well format at 50 μL per well. Cell density is 2×10^5 cells per well for MOLM-14 and Ba/F3-FLT3/ITD cells. To each well 50 μL of 2× drug dilution in RPMI 1640 media with 10% serum was added. Each condition is plated in quadruplicate. The cells are then incubated at 37° C. After 44 hours of treatment, 10 μL of 5 mg/mL thiazolyl blue tetrazolium bromide (MTT, Sigma) in PBS, sterile-filtered, is added to each well, and the plates are incubated for an additional 4 hours at 37° C. […] Optical absorbance at 570 nm is measured via plate reader (iMark, Bio-Rad), averaging across technical replicates."}, "MOLM-14 cells [2]": {"system": "MOLM-14 cells", "test": "Modified plasma inhibition assay (PIA), MTT proliferation in 50% human plasma", "type": "cell-based", "details": "MOLM-14, 48 hours", "protocol": "In the original plasma inhibitory assay (PIA), FLT3/ITD-expressing cells are co-incubated with plasma samples from patients receiving a FLT3 TKI, and Western blotting analysis of FLT3 auto-phosphorylation is used to measure the extent of FLT3 inhibitory activity present in their plasma.(9) This can then be compared to total plasma drug levels to determine the relative efficacy of a drug in vivo compared to its activity in vitro. […] To model these effects in the pre-clinical setting, we modified the PIA assay. Whereas the PIA was designed to assess in vivo drug activity with regards to a specific target (e.g.: inhibition of FLT3 auto-phosphorylation by TKI), the modified PIA is similarly cell-based, but measures the clinically relevant biological end-points of cytotoxicity and proliferation inhibition, instead of target inhibition. In the modified assay, FLT3/ITD cell lines are cultured in the presence of human plasma or purified human plasma proteins and treated with a range of concentrations of the drug of interest. […]\nCells in logarithmic growth are resuspended in either human plasma or serum-free RPMI 1640 media supplemented with the plasma protein of interest and seeded in 96-well format at 50 μL per well. […] Optical absorbance at 570 nm is measured via plate reader (iMark, Bio-Rad), averaging across technical replicates."}, "MOLM-14 cells [3]": {"system": "MOLM-14 cells", "test": "Modified PIA with bovine plasma or bovine AGP", "type": "cell-based", "details": "bovine AGP adjusted to levels comparable to human plasma"}, "Ba/F3-FLT3/ITD-Luc cells": {"system": "Ba/F3-FLT3/ITD-Luc cells", "test": "Ba/F3-FLT3/ITD-Luc engrafted mouse model with human AGP, bioluminescent imaging", "type": "in vivo, BALB/c mice", "details": "oral gavage four days, imaged day 9"}},
  "note": "At least one compound was matched to its structure with a doubt left. Some entries share one result that the patent states for a list of compounds.",
  "data": [
    {"smiles": "Cc1ccc(-c2cc(C(F)(F)F)nn2-c2ccc(S(N)(=O)=O)cc2)cc1", "note": "[celecoxib]", "values": [
      {"measurement": "ability to displace TKI (TTT-3002, CEP-701) from AGP", "setting": "MOLM-14 cells [1]; MOLM-14, AGP 1.0 mg/mL, increasing doses of competitor, FIG. 13", "result": "cannot displace the more tightly-bound TKI from AGP"}
    ]},
    {"smiles": "C[C@]12O[C@H](C[C@]1(O)CO)n1c3ccccc3c3c4c(c5c6ccccc6n2c5c31)CNC4=O", "note": "[lestaurtinib]", "values": [
      {"measurement": "effect of human plasma on IC50", "setting": "MOLM-14 cells [2]; 50% human plasma vs 10% fetal bovine serum", "result": "IC50s were no longer reached"},
      {"measurement": "AGP concentration at which appreciable activity is seen", "setting": "MOLM-14 cells [1]; MOLM-14, AGP 31 μg/mL-2 mg/mL, FIG. 10", "result": "only seen at AGP concentrations less than one-tenth of typical physiologic human levels"},
      {"measurement": "inhibition of TKI activity by purified human AGP", "setting": "MOLM-14 cells [1]; MOLM-14, purified human AGP at physiologic concentration (1 mg/mL), sub-physiologic also tested", "result": "complete inhibition"},
      {"measurement": "predicted in vivo anti-FLT3 activity", "setting": "MOLM-14 cells [1]; extrapolated to average AGP plasma concentration of 100 mg/dL, FIG. 11", "result": "approximately the same in vivo activity"},
      {"measurement": "increase in IC50 with bovine AGP", "setting": "MOLM-14 cells [3]", "result": "five"}
    ]},
    {"smiles": "CO[C@@H]1[C@H](N(C)C(=O)c2ccccc2)C[C@H]2O[C@]1(C)n1c3ccccc3c3c4c(c5c6ccccc6n2c5c31)C(=O)NC4", "note": "[midostaurin]", "values": [
      {"measurement": "response of FLT3/ITD-expressing cells (bioluminescence), midostaurin alone", "setting": "Ba/F3-FLT3/ITD-Luc cells", "result": "regression of the cells"},
      {"measurement": "response of FLT3/ITD-expressing cells (bioluminescence), midostaurin plus intraperitoneal human AGP", "setting": "Ba/F3-FLT3/ITD-Luc cells", "result": "progression of the cells comparable to that seen in the control animals"}
    ]},
    {"smiles": "CNC(=O)c1cc(Oc2ccc(NC(=O)Nc3ccc(Cl)c(C(F)(F)F)c3)cc2)ccn1", "note": "[sorafenib]", "values": [
      {"measurement": "fold inhibition (increase in IC50) in the presence of 50% human plasma", "setting": "MOLM-14 cells [2]; MTT, 50% human plasma vs 10% FBS", "result": "greater than 100 fold"}
    ]}
  ]
}
